Measured values as given in article PMC11747798.

By UniProt entry, the sequences of proteins in these tests, tags left out.
UniProt Q14980: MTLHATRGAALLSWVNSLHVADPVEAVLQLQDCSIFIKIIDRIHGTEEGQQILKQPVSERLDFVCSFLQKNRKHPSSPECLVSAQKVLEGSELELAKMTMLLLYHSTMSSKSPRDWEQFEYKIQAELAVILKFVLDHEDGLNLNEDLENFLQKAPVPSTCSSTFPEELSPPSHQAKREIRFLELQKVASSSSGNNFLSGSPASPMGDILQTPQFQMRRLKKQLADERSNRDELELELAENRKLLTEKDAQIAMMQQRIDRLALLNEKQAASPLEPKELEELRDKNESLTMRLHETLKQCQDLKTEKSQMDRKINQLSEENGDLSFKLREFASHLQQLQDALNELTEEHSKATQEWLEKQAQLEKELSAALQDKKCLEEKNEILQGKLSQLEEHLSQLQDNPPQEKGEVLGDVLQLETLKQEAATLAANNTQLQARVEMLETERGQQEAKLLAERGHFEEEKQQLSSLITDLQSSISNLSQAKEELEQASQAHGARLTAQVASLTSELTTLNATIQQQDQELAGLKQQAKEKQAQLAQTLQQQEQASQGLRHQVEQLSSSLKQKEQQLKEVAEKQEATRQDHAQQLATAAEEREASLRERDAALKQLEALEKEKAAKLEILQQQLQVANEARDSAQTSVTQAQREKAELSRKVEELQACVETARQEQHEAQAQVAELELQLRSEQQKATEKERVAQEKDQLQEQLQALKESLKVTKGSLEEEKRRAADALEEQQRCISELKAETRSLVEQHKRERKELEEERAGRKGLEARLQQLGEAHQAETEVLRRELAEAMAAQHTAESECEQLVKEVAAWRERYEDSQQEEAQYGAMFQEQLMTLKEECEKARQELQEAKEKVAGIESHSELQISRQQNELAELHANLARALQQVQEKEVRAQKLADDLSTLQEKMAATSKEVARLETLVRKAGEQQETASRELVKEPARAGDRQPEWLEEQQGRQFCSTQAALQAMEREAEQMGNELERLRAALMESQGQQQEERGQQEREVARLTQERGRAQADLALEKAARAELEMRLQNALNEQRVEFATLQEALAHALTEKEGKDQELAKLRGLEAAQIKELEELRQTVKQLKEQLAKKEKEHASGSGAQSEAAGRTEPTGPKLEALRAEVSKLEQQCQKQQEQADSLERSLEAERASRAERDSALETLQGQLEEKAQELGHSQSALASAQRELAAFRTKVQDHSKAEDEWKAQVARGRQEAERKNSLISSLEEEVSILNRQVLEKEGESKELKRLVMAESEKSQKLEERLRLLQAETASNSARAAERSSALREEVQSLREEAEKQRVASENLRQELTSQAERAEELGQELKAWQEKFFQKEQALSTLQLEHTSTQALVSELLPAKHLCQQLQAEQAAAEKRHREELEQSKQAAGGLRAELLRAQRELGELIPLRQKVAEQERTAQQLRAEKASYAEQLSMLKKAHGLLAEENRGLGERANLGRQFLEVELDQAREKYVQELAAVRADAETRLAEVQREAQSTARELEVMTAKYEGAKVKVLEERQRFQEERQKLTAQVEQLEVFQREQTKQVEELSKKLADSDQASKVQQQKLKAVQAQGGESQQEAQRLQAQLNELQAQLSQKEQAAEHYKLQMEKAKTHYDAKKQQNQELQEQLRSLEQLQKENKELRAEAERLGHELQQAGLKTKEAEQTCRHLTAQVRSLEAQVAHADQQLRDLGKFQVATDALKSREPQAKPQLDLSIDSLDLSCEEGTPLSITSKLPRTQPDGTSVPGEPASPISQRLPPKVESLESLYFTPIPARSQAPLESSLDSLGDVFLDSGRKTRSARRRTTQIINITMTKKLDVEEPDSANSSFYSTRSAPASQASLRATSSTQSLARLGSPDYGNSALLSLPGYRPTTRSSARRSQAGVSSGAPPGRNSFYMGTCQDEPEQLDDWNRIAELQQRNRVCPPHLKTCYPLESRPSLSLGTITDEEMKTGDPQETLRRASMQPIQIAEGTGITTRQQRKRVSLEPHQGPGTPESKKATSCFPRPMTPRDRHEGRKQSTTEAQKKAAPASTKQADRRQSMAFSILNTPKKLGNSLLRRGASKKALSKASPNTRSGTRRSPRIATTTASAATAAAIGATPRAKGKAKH
UniProt Q06330: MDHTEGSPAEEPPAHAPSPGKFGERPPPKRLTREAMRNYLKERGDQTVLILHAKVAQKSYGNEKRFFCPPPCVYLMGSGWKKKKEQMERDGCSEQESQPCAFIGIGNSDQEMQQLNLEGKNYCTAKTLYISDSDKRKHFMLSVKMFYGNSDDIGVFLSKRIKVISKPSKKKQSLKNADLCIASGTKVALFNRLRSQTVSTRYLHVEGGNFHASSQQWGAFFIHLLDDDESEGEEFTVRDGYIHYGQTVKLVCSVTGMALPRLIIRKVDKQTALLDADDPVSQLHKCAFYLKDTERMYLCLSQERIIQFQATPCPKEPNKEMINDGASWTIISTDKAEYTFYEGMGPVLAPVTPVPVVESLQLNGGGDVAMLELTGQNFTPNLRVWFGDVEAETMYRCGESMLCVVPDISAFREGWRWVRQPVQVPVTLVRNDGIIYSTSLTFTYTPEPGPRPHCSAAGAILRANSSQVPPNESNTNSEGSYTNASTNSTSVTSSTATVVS
UniProt P46821: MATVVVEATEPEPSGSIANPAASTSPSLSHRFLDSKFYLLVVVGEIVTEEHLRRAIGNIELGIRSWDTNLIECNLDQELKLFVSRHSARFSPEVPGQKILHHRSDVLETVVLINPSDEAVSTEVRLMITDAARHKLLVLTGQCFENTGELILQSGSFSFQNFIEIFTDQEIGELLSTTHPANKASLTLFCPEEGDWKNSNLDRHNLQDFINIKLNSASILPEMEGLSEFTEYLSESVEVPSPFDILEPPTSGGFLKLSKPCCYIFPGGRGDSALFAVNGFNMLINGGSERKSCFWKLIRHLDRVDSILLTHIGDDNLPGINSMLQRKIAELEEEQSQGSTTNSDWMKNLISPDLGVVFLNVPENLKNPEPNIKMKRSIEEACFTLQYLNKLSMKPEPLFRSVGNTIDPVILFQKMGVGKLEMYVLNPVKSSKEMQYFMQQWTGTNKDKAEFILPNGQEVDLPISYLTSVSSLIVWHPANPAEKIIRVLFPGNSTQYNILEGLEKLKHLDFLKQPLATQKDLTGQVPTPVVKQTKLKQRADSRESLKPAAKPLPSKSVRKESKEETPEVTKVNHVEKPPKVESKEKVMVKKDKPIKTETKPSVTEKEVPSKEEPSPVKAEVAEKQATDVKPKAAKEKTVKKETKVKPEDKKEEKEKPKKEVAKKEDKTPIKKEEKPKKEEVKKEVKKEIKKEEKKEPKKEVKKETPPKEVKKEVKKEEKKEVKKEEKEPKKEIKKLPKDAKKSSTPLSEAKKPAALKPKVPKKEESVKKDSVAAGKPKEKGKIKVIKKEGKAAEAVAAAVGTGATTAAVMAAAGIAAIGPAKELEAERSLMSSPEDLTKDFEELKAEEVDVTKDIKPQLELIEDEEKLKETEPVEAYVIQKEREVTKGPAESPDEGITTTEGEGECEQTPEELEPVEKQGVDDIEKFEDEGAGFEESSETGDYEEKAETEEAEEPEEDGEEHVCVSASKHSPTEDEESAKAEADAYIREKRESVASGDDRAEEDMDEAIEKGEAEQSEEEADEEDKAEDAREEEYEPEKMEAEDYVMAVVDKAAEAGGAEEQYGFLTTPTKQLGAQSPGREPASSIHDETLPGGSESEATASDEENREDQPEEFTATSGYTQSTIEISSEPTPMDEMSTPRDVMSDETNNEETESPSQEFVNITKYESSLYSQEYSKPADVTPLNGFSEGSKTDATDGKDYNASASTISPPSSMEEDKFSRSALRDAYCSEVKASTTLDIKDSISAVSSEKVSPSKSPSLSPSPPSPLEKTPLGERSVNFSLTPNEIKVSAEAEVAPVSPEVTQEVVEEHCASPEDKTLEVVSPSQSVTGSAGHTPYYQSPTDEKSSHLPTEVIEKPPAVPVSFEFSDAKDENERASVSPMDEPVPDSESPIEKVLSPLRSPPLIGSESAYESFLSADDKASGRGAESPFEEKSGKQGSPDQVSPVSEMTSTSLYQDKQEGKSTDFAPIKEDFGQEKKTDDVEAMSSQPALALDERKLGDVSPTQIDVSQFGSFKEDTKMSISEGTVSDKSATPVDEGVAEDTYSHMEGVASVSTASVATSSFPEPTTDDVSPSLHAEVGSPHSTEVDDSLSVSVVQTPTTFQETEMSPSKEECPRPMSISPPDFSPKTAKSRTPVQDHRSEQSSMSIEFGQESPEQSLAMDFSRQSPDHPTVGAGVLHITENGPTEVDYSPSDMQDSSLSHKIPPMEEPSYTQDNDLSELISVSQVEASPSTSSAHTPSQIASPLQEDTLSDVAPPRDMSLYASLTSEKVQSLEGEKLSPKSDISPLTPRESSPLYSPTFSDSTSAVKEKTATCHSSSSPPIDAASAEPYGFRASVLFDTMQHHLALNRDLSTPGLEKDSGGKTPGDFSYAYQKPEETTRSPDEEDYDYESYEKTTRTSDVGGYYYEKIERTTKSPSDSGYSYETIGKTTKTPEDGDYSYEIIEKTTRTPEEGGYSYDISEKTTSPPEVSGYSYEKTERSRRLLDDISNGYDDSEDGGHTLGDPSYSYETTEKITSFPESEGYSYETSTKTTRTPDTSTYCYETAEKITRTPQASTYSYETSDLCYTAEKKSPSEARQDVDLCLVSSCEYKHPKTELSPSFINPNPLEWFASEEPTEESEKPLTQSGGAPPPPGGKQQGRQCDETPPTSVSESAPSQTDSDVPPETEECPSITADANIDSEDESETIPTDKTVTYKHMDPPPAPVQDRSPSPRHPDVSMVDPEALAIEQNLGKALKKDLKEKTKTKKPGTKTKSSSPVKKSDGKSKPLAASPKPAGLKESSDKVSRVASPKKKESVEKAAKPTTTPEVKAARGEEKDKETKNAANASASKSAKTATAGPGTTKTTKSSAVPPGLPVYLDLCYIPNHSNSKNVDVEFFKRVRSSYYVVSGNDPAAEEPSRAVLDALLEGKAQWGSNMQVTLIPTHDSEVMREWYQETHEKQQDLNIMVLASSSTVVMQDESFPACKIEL

T1: HA-tagged RITA (UniProt Q96K30)
T1 sequence: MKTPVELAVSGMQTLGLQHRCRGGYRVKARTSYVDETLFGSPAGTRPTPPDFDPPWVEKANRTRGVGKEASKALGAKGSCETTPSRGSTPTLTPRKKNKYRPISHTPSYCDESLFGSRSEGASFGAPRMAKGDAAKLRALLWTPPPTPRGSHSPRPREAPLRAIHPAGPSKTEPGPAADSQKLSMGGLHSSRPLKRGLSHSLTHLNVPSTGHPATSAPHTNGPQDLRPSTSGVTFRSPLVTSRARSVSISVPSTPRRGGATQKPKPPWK


The molecules below were run against T1, HA-tagged RITA (assay: affinity purification with mass spectrometry; re-analysis of an earlier mass spectrometry analysis (Hoock et al., 2019) of HA-tagged RITA immunoprecipitates from transiently transfected HEK293T cells; partners with a weighted D score >= 1 presented).

Molecule	binding
NUMA1 (nuclear mitotic apparatus protein 1) (from UniProt Q14980 1-2115)	binds
RBP-J (recombination signal binding protein for immunoglobulin kappa J region) (from UniProt Q06330 1-500)	binds

Results, then the molecule that gave them:

binding	Molecule
binds	MAP1B (microtubule-associated protein 1B) (from UniProt P46821 1-2468)
binds	LPP (lipoma-preferred partner) (protein, UniProt Q93052 1-612) MSHPSWLPPKSTGEPLGHVPARMETTHSFGNPSISVSTQQPPKKFAPVVAPKPKYNPYKQPGGEGDFLPPPPPPLDDSSALPSISGNFPPPPPLDEEAFKVQGNPGGKTLEERRSSLDAEIDSLTSILADLECSSPYKPRPPQSSTGSTASPPVSTPVTGHKRMVIPNQPPLTATKKSTLKPQPAPQAGPIPVAPIGTLKPQPQPVPASYTTASTSSRPTFNVQVKSAQPSPHYMAAPSSGQIYGSGPQGYNTQPVPVSGQCPPPSTRGGMDYAYIPPPGLQPEPGYGYAPNQGRYYEGYYAAGPGYGGRNDSDPTYGQQGHPNTWKREPGYTPPGAGNQNPPGMYPVTGPKKTYITDPVSAPCAPPLQPKGGHSGQLGPSSVAPSFRPEDELEHLTKKMLYDMENPPADEYFGRCARCGENVVGEGTGCTAMDQVFHVDCFTCIICNNKLRGQPFYAVEKKAYCEPCYINTLEQCNVCSKPIMERILRATGKAYHPHCFTCVMCHRSLDGIPFTVDAGGLIHCIEDFHKKFAPRCSVCKEPIMPAPGQEETVRIVALDRDFHVHCYRCEDCGGLLSEGDNQGCYPLDGHILCKTCNSARIRVLTAKASTDL

These are yes or no findings as the source states them, for the method shown. Binding seen in cells or lysates may run through a third protein. Here binding means that the protein was enriched with, or labelled near, the bait; the list need not be complete. Sequences can lack the tags named with a protein.
